Source: the supplement of paper PMC6411743
± gives the standard deviation of the averaged measurements. Only a part is listed here, and it is no random draw.

By UniProt entry, the sequences of proteins in these tests, tags left out. Where a name states a change or a piece, a line headed by the entry shows the natural chain unless it says otherwise.
UniProt Q6VMQ6: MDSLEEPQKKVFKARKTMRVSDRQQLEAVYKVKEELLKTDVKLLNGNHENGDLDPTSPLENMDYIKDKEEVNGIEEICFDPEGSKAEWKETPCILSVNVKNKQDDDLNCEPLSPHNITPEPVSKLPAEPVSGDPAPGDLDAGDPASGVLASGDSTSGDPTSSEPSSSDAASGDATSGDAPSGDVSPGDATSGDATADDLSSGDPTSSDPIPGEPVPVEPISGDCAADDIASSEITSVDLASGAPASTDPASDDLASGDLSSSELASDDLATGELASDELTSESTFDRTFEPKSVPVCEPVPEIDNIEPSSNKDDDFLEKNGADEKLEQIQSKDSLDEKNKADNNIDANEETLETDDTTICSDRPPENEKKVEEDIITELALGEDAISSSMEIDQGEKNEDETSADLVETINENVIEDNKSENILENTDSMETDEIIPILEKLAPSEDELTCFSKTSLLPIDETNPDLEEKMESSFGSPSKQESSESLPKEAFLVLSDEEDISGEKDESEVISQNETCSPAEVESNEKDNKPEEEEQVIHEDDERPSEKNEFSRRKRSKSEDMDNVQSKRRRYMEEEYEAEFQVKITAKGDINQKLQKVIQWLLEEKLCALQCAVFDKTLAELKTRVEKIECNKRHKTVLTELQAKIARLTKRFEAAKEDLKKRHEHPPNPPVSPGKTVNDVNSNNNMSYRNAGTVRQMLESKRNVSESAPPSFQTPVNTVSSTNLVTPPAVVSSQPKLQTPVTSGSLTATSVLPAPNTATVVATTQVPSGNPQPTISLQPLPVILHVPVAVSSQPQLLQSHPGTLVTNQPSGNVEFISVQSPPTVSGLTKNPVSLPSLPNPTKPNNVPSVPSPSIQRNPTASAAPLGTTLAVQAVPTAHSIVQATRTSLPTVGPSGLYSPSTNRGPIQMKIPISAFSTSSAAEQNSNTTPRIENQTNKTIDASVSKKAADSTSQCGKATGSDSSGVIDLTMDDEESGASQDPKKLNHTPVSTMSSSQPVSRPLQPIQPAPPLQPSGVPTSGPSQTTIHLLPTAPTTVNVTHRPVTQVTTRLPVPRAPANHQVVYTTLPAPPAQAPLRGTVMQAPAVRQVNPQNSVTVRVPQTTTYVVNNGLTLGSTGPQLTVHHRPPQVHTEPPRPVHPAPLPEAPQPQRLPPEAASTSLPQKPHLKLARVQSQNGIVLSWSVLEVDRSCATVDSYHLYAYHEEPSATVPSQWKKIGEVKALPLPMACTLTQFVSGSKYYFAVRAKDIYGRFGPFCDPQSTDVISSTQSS
UniProt Q5VWP2: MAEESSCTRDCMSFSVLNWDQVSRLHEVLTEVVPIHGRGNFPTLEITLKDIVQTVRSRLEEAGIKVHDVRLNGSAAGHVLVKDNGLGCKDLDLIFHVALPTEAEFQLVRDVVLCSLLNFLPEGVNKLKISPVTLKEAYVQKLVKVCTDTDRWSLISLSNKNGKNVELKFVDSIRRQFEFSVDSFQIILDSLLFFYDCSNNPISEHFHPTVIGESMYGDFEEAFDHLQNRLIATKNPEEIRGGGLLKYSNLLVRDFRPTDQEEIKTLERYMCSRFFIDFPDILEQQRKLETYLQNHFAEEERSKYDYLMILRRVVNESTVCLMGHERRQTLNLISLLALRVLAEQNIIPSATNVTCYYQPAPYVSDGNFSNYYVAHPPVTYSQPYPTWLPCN
UniProt Q66PJ3: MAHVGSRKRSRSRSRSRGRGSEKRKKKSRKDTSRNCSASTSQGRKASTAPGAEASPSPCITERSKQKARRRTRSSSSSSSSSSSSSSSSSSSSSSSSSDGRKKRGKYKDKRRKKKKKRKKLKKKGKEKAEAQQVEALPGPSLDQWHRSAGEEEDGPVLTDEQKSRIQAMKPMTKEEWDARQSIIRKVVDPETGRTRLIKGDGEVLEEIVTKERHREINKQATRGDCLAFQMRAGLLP
UniProt Q5VWN6: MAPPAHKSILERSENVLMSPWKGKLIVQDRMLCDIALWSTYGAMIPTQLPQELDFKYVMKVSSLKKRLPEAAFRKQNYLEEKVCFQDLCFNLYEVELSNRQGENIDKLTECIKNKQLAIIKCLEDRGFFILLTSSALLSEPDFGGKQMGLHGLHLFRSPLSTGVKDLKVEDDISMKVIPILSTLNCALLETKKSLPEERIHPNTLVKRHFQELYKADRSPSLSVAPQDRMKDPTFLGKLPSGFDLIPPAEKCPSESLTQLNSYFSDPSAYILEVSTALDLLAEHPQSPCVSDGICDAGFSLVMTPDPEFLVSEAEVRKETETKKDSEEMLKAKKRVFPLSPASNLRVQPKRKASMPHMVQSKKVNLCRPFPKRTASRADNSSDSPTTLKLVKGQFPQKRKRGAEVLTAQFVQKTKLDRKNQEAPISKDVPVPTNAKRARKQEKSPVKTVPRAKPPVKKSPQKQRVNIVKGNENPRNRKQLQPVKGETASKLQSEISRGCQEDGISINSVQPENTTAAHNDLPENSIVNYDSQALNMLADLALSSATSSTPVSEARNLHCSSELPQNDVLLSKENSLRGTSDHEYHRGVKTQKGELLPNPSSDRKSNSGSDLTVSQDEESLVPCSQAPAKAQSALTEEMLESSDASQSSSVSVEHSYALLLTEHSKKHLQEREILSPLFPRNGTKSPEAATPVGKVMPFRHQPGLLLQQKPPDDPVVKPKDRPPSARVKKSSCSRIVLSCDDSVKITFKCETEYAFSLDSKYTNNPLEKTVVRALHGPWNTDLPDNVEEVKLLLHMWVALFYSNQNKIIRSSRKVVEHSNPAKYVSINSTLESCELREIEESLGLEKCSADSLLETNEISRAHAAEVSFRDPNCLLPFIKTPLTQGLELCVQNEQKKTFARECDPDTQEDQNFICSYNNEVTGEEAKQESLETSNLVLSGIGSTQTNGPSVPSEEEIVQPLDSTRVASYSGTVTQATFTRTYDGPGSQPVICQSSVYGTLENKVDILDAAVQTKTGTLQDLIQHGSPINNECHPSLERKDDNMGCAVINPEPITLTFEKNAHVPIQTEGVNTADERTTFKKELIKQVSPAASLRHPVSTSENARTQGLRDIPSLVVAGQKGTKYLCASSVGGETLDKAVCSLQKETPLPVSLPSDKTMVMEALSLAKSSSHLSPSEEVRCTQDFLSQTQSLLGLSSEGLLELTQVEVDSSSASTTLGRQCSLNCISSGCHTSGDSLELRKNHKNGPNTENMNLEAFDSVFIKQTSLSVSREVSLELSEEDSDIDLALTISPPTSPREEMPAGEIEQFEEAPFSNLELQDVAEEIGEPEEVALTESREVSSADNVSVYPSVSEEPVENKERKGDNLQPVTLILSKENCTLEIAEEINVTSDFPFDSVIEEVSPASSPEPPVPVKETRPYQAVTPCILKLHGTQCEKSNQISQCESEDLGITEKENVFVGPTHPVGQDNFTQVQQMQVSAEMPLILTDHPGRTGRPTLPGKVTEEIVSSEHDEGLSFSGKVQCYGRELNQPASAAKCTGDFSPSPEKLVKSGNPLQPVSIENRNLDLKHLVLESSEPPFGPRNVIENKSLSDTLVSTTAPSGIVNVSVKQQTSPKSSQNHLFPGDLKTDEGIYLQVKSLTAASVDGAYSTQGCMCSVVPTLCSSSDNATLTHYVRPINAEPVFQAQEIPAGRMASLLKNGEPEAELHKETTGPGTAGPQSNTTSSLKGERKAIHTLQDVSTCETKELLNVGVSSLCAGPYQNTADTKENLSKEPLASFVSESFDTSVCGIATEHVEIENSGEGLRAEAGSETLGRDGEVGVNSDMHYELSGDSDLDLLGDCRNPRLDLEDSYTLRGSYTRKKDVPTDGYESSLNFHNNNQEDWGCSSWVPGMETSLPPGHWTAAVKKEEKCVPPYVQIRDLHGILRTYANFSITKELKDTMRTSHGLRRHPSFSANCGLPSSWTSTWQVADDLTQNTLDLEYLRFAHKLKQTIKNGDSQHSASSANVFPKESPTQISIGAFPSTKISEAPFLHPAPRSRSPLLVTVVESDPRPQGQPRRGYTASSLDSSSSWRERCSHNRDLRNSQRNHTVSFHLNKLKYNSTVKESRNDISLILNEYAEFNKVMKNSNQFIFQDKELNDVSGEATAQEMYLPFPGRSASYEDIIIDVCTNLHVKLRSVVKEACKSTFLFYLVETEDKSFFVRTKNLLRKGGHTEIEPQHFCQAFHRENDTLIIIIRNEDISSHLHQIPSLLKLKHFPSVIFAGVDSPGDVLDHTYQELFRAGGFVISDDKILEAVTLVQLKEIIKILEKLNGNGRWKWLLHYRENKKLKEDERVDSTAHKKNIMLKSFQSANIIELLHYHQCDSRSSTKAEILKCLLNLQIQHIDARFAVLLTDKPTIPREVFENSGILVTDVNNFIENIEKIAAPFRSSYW
UniProt Q7Z5G4, whole entry: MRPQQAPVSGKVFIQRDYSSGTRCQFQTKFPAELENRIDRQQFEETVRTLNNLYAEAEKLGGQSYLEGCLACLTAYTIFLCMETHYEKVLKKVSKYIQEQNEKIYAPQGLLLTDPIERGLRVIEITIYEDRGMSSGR
UniProt Q658Y4: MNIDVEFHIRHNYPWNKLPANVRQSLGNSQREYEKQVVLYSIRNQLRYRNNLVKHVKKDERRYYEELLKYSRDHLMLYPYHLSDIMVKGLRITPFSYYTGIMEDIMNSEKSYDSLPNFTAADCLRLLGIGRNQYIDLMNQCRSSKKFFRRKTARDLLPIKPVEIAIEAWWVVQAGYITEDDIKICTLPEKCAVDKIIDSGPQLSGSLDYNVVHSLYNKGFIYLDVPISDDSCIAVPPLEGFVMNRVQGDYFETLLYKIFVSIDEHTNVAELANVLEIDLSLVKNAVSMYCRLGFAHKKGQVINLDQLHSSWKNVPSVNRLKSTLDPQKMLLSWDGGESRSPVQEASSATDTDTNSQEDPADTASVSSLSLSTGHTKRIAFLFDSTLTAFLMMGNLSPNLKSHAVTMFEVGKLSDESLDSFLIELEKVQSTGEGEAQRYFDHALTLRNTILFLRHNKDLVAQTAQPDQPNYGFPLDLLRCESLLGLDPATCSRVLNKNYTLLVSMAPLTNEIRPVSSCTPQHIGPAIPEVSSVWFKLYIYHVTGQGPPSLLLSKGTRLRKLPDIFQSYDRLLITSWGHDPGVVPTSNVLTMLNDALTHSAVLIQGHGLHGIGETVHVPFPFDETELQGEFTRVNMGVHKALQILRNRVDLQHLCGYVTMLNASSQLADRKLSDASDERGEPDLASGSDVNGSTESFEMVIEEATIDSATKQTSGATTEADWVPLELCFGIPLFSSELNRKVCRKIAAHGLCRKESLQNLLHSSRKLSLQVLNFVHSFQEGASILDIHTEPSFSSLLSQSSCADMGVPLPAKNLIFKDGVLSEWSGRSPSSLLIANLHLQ
UniProt Q6AI08: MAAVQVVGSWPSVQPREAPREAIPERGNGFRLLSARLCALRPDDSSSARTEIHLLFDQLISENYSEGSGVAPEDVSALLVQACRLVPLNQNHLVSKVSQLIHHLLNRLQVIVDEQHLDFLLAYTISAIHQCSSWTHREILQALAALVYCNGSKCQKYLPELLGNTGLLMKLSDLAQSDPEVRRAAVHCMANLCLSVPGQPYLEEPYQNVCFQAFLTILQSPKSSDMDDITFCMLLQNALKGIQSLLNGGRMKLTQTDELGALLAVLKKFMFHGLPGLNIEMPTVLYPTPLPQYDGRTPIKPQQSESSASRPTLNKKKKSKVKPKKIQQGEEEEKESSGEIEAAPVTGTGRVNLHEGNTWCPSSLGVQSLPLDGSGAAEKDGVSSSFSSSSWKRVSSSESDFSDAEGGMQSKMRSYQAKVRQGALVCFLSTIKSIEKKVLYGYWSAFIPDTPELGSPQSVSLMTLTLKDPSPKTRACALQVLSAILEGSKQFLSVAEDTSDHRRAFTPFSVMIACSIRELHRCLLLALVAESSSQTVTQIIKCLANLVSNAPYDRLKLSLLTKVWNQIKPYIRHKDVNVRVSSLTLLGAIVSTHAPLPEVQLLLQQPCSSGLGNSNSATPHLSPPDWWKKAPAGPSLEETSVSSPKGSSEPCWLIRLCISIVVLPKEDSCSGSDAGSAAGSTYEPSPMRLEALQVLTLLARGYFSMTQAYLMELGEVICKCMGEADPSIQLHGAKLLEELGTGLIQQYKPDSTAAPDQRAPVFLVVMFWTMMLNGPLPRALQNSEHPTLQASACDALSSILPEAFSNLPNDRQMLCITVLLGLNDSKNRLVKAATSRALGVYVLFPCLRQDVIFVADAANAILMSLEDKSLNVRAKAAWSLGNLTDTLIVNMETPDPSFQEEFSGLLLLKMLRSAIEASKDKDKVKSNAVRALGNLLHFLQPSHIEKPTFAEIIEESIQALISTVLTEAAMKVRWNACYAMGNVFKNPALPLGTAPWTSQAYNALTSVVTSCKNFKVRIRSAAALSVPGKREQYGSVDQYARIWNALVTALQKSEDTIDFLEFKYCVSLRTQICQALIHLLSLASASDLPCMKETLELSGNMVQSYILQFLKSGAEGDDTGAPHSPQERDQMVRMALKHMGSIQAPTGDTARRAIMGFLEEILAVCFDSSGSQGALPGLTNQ

Compound: Nc1ncnc2c1ncn2[C@@H]1O[C@H](COP(=O)(O)OP(=O)(O)NP(=O)(O)O)[C@@H](O)[C@H]1O [adenylyl imidodiphosphate]
Assay: NP40-soluble protein abundance relative to vehicle (solubility fold change) (ratio); higher = more soluble protein in presence of AMP-PNP
Procedure, shortened: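 Each value is a fold change relative to the detergent-processed vehicle, calculated per replicate from vsn-normalised intensities. Jurkat crude lysate received eight concentrations (0.1 to 10 mM) for 10 min at room temperature and 3 min at 37 °C, then was solubilised in 0.8% NP40 with benzonase (60 min, 4 °C). The ultracentrifuged supernatant was TMT-labelled and run by LC-MS/MS in three independent experiments.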

For UniProt Q6VMQ6 and related entries, the NP40-soluble protein abundance (concentration: 1mM) was 1.01 ± 0.021, the NP40-soluble protein abundance (concentration: 2mM) was 1.08 ± 0.049 and the NP40-soluble protein abundance (concentration: 4mM) was 1.02 ± 0.03. For the same target, the NP40-soluble protein abundance (concentration: 6mM) was 1 ± 0.028, the NP40-soluble protein abundance (concentration: 8mM) was 0.95 ± 0.011 and the NP40-soluble protein abundance (concentration: 10mM) was 1.01 ± 0.033.

UniProt Q6F5E8 and related entries showed an NP40-soluble protein abundance (concentration: 1mM) of 1.01 ± 0.039, an NP40-soluble protein abundance (concentration: 2mM) of 1.02 ± 0.024 and an NP40-soluble protein abundance (concentration: 4mM) of 1.05 ± 0.055. The NP40-soluble protein abundance (concentration: 6mM) was 1.03 ± 0.038, the NP40-soluble protein abundance (concentration: 8mM) was 1.04 ± 0.029 and the NP40-soluble protein abundance (concentration: 10mM) was 1.05 ± 0.032.

SLC25A24 (UniProt Q6NUK1) was tested, and the NP40-soluble protein abundance (concentration: 1mM) was 0.956 ± 0.077, the NP40-soluble protein abundance (concentration: 2mM) was 0.937 ± 0.043 and the NP40-soluble protein abundance (concentration: 4mM) was 0.974 ± 0.07. The NP40-soluble protein abundance (concentration: 6mM) was 1.09 ± 0.12, the NP40-soluble protein abundance (concentration: 8mM) was 1.07 ± 0.12 and the NP40-soluble protein abundance (concentration: 10mM) was 1.08 ± 0.089.

Work on UniProt Q5VWP2 yielded an NP40-soluble protein abundance (concentration: 1mM) of 0.9681 ± 0.0066, an NP40-soluble protein abundance (concentration: 2mM) of 0.998 ± 0.025 and an NP40-soluble protein abundance (concentration: 4mM) of 1 ± 0.016. The NP40-soluble protein abundance (concentration: 6mM) was 1.01 ± 0.043, the NP40-soluble protein abundance (concentration: 8mM) was 0.979 ± 0.041 and the NP40-soluble protein abundance (concentration: 10mM) was 0.988 ± 0.056.

Target CTR9 (UniProt Q6PD62) has an NP40-soluble protein abundance (concentration: 1mM) of 0.977 ± 0.029, an NP40-soluble protein abundance (concentration: 2mM) of 0.912 ± 0.074 and an NP40-soluble protein abundance (concentration: 4mM) of 0.976 ± 0.018. For the same target, the NP40-soluble protein abundance (concentration: 6mM) was 0.9708 ± 0.0065, the NP40-soluble protein abundance (concentration: 8mM) was 0.977 ± 0.028 and the NP40-soluble protein abundance (concentration: 10mM) was 0.958 ± 0.035.

In the case of UniProt Q66PJ3 and related entries, the NP40-soluble protein abundance (concentration: 1mM) is reported as 1.03 ± 0.052, the NP40-soluble protein abundance (concentration: 2mM) is reported as 1.08 ± 0.067 and the NP40-soluble protein abundance (concentration: 4mM) is reported as 1.06 ± 0.066. It also gave an NP40-soluble protein abundance (concentration: 6mM) of 1.11 ± 0.072, an NP40-soluble protein abundance (concentration: 8mM) of 1.1 ± 0.12 and an NP40-soluble protein abundance (concentration: 10mM) of 1.17 ± 0.12.

For UniProt Q5VZE5, the NP40-soluble protein abundance (concentration: 1mM) was 1.08 ± 0.069, the NP40-soluble protein abundance (concentration: 2mM) was 1.05 ± 0.033 and the NP40-soluble protein abundance (concentration: 4mM) was 1.07 ± 0.027. It also gave an NP40-soluble protein abundance (concentration: 6mM) of 1.07 ± 0.018, an NP40-soluble protein abundance (concentration: 8mM) of 1.06 ± 0.032 and an NP40-soluble protein abundance (concentration: 10mM) of 1.05 ± 0.03.

Work on MEPCE (UniProt Q7L2J0) yielded an NP40-soluble protein abundance (concentration: 1mM) of 1.06 ± 0.039, an NP40-soluble protein abundance (concentration: 2mM) of 1.12 ± 0.023 and an NP40-soluble protein abundance (concentration: 4mM) of 1.1 ± 0.026. For the same target, the NP40-soluble protein abundance (concentration: 6mM) was 1.11 ± 0.04, the NP40-soluble protein abundance (concentration: 8mM) was 1.1 ± 0.048 and the NP40-soluble protein abundance (concentration: 10mM) was 1.18 ± 0.053.

Work on UniProt Q5VWN6 yielded an NP40-soluble protein abundance (concentration: 1mM) of 1.013 ± 0.01, an NP40-soluble protein abundance (concentration: 2mM) of 1.05 ± 0.041 and an NP40-soluble protein abundance (concentration: 4mM) of 1.02 ± 0.016. For the same target, the NP40-soluble protein abundance (concentration: 6mM) was 1 ± 0.025, the NP40-soluble protein abundance (concentration: 8mM) was 0.976 ± 0.026 and the NP40-soluble protein abundance (concentration: 10mM) was 1.03 ± 0.015.

UniProt Q6FI81 and related entries was tested, and the NP40-soluble protein abundance (concentration: 1mM) was 1 ± 0.045, the NP40-soluble protein abundance (concentration: 2mM) was 1.05 ± 0.063 and the NP40-soluble protein abundance (concentration: 4mM) was 1.02 ± 0.03. It also gave an NP40-soluble protein abundance (concentration: 6mM) of 1.07 ± 0.029, an NP40-soluble protein abundance (concentration: 8mM) of 1.05 ± 0.043 and an NP40-soluble protein abundance (concentration: 10mM) of 1.06 ± 0.035.

In the case of UniProt Q75QN2 and related entries, the NP40-soluble protein abundance (concentration: 1mM) is reported as 0.962 ± 0.043, the NP40-soluble protein abundance (concentration: 2mM) is reported as 0.935 ± 0.087 and the NP40-soluble protein abundance (concentration: 4mM) is reported as 0.982 ± 0.08. It also gave an NP40-soluble protein abundance (concentration: 6mM) of 0.985 ± 0.064, an NP40-soluble protein abundance (concentration: 8mM) of 0.943 ± 0.083 and an NP40-soluble protein abundance (concentration: 10mM) of 0.937 ± 0.068.

UniProt Q7Z5G4 and related entries was tested, and the NP40-soluble protein abundance (concentration: 1mM) was 0.986 ± 0.027, the NP40-soluble protein abundance (concentration: 2mM) was 0.999 ± 0.024 and the NP40-soluble protein abundance (concentration: 4mM) was 0.994 ± 0.03. For the same target, the NP40-soluble protein abundance (concentration: 6mM) was 0.995 ± 0.021, the NP40-soluble protein abundance (concentration: 8mM) was 1.02 ± 0.026 and the NP40-soluble protein abundance (concentration: 10mM) was 0.971 ± 0.051.

UniProt Q6PI47 gave an NP40-soluble protein abundance (concentration: 1mM) of 0.873 ± 0.06, an NP40-soluble protein abundance (concentration: 2mM) of 0.905 ± 0.046 and an NP40-soluble protein abundance (concentration: 4mM) of 0.947 ± 0.051. The NP40-soluble protein abundance (concentration: 6mM) was 1 ± 0.023, the NP40-soluble protein abundance (concentration: 8mM) was 1.08 ± 0.047 and the NP40-soluble protein abundance (concentration: 10mM) was 1.1 ± 0.064.

For FAM91A1 (UniProt Q658Y4), the NP40-soluble protein abundance (concentration: 1mM) was 0.958 ± 0.033, the NP40-soluble protein abundance (concentration: 2mM) was 0.915 ± 0.068 and the NP40-soluble protein abundance (concentration: 4mM) was 0.961 ± 0.031. For the same target, the NP40-soluble protein abundance (concentration: 6mM) was 0.99 ± 0.041, the NP40-soluble protein abundance (concentration: 8mM) was 1.01 ± 0.034 and the NP40-soluble protein abundance (concentration: 10mM) was 0.975 ± 0.054.

For HEATR6 (UniProt Q6AI08), the NP40-soluble protein abundance (concentration: 1mM) was 0.993 ± 0.037, the NP40-soluble protein abundance (concentration: 2mM) was 0.996 ± 0.052 and the NP40-soluble protein abundance (concentration: 4mM) was 1 ± 0.06. The NP40-soluble protein abundance (concentration: 6mM) was 0.974 ± 0.05, the NP40-soluble protein abundance (concentration: 8mM) was 0.983 ± 0.049 and the NP40-soluble protein abundance (concentration: 10mM) was 0.967 ± 0.04.
